Data taken from PubChem BioAssay AID504467 (National Center for Advancing Translational Sciences (NCATS), 2011).
The whole screen tested about 330,000 compounds, of which about 7,700 (2.3%) were called active. The shares of active, inactive and inconclusive entries below differ from those in the screen. The call rests on the fitted dose curve; in most records, active means well fitted inhibition curve with a large enough effect; inconclusive means small, poorly fitted or top-dose-only effect, or effect the other way; inactive means flat fitted curve, though single readings scatter. Potencies of inconclusive entries are doubtful fits and often do not repeat.

Experiment: qHTS screen for small molecules that inhibit ELG1-dependent DNA repair in human embryonic kidney (HEK293T) cells expressing luciferase-tagged ELG1; further: nearly all actives have a fitted effect of over 55% in size
Details: HEK293T ELG1-luciferase reporter, luminescence, 16 h, DNA damage induced by 5-fluorouridine; activity change, negative = inhibition: at 46.1 µM (top of the series)
Summary of the method: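 Quantitative HTS, concentration-response format. 2,000 cells/well co-treated with 5-fluorouridine and compound, 16 hr in 5% CO2 at 37 °C; ONE-Glo luminescence read after 30 min.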
On the % scale 0 is the no-effect control and ±100 the full control effect; potency means the concentration at half of the fitted maximal effect.

Row | Compound | Potency | activity change, negative = inhibition
1 | COc1ccc(CCNC(=O)c2c(C)nc3ccccn23)cc1 | inconclusive: 18.3 µM [inhibitor, single point] | –
2 | CN=C1c2cc3cc(OC)ccc3n2CCN1Cc1ccccc1 | inconclusive: 4.11 µM [inhibitor, single point] | –
3 | CCc1ccc2oc(-c3cc(N)ccc3Cl)nc2c1 | inconclusive: 5.17 µM [activator, partial curve] | –
4 | COc1ccc(OC)c(S(=O)(=O)NCCc2ccccc2)c1 | inconclusive: 10.3 µM [activator, partial curve] | –
5 | CC(C)c1ccc(NC(=O)c2cc(S(=O)(=O)N3CCCC3)c[nH]2)cc1 | inconclusive: 23.1 µM [inhibitor, single point] | –
6 | Oc1ccc(-c2csc(-c3ccccc3)n2)cc1O | inconclusive: 9.2 µM [activator, partial curve] | –
7 | CCOc1ccccc1CNC(=O)c1nn(C)c2c1CS(=O)(=O)c1ccccc1-2 | active: 16.4 µM | –
8 | Cc1ccc2nc(CSc3nnc4ccccn34)cc(=O)n2c1 | inconclusive: 25.9 µM [activator, partial curve] | –
9 | Cc1ccccc1OCC(=O)Nc1sc2c(c1C#N)CCC2 | inconclusive: 18.4 µM [activator, single point] | –
10 | Cc1ccc(NC(=O)c2sc3nc(CCl)[nH]c(=O)c3c2C)c(C)c1 | inconclusive: 20.6 µM [activator, single point] | –
11 | CN1Cc2sc(N)c(C#N)c2CC1(C)C | inconclusive: 2.06 µM [activator, partial curve] | –
12 | CN1C(=O)/C(=C/c2ccc(C(=O)NC3CCCC3)cc2)Oc2ccccc21 | inconclusive: 20.6 µM [activator, partial curve, poor fit] | –
13 | CC(C)CNC(=S)N1CCC(NC(=O)C23CC4CC(CC(C4)C2)C3)CC1 | – | inactive: -29.1%
14 | Cc1cccc(C(=O)Nc2ccccc2SCC(=O)Nc2ccc(C)c(Cl)c2)c1 | inconclusive: 18.4 µM [activator, single point] | –
15 | C/C(=N\Nc1ncc(Cl)cc1Cl)c1ccc(OC(F)F)cc1 | inconclusive: 18.4 µM [activator, single point] | –
16 | Cn1c(C(=O)N2CCC(C(=O)N3CCN(Cc4ccc5c(c4)OCO5)CC3)CC2)cc2sccc21 | active: 7.31 µM | –
17 | CC(C)N1CSC(=S)N(Cc2ccccc2)C1 | – | inactive: 9.3%
18 | Cc1nc(SCC(=O)Nc2cccc(S(=O)(=O)N3CCOCC3)c2)nc(C)c1C | inconclusive: 29.1 µM [inhibitor, single point] | –
19 | Cc1ccc2c(c1)N(CCC(=O)NCCCN1CCCC1)C(=O)C(C)O2 (stereo not drawn) | inconclusive: 7.3 µM [activator, partial curve] | –
20 | COc1ccc2[nH]c3c(NCc4ccco4)ncnc3c2c1 | inconclusive: 5.8 µM [activator, partial curve] | –
21 | O=C(CCNS(=O)(=O)c1ccccc1F)NC1CCCCCC1 | inconclusive: 25.9 µM [activator, partial curve, poor fit] | –
22 | Cc1nc(C(=O)NCC(=O)c2ccccc2)c(C(F)(F)F)o1 | – | inactive: -23.6%
23 | COc1ccc(S(=O)(=O)NNC(=O)C2Cc3c(ccc4ccccc34)O2)cc1 (stereo not drawn) | inconclusive: 8.2 µM [inhibitor, partial curve, poor fit] | –

Row | Compound | Potency | activity change, negative = inhibition
24 | COc1ccc(-c2cc(C(F)(F)F)nc(S(=O)(=O)CCC(=O)N3CCOCC3)n2)cc1 | inconclusive: 29.1 µM [inhibitor, single point] | –
25 | Cc1cc(N2CCN(C(=O)c3ccco3)CC2)n2ncc(-c3ccccc3)c2n1 | inconclusive: 29.1 µM [inhibitor, single point] | –
26 | Cc1ccc2nnn(Cc3cccc(C(C)(C)C)c3O)c2c1 | – | inactive: -1.83%
27 | COc1cc(SC)ccc1C(=O)N(Cc1ccccc1)c1ccccn1 | inconclusive: 23.1 µM [inhibitor, single point] | –
28 | Cc1ccc([N+](=O)[O-])cc1S(=O)(=O)Nc1cccc(-c2ccc(N3CCOCC3)nn2)c1 | inconclusive: 5.8 µM [activator, single point] | –
29 | CCOC(=O)c1sc(Nc2nc3c(OC)cccc3s2)cc1C | inconclusive: 29.1 µM [inhibitor, single point] | –
30 | Cc1ccc(SCCC(=O)NC(C)(C)C)cc1 | inconclusive: 18.4 µM [activator, single point] | –
31 | C#Cc1ccc([C@@H]2C=C(C(=O)N3CCN(Cc4ccc5c(c4)OCO5)CC3)O[C@H](OCCCCO)C2)cc1 | inconclusive: 23.1 µM [inhibitor, single point] | –
32 | COc1ccc(CN(CCC(c2ccc(F)cc2)C2CCOC(C)(C)C2)C(=O)c2ccco2)cc1 (stereo not drawn) | active: 10.3 µM | –
33 | Cc1cc(C)cc(OCC(=O)Nc2ccccc2C(=O)NCc2ccco2)c1 | inconclusive: 23.1 µM [inhibitor, single point] | –
34 | N#CCCn1cc(/C=N/O)c(-c2ccc(-c3ccccc3)cc2)n1 | inconclusive: 32.6 µM [inhibitor, partial curve, poor fit] | –
35 | Cc1ccc(C2(c3noc(CN(C)Cc4cnn(C)c4)n3)CCCC2)cc1 | – | inactive: -2.77%
36 | CCOc1cccc(-c2nnc3sc(C4CCCCC4)nn23)c1 | active: 20.6 µM | –
37 | COc1ccccc1OCCCn1c(=O)oc2ccccc21 | inconclusive: 18.4 µM [activator, single point] | –
38 | Nc1c(C(=O)N2CCOCC2)sc2nc3c(cc12)CCC3 | inconclusive: 3.66 µM [activator, full curve] | –
39 | Cc1ccc(-c2nc3ccccc3s2)cc1NC(=O)c1cc(-n2cnnc2)ccc1Cl | inconclusive: 20.6 µM [activator, partial curve] | –
40 | Cc1cc(C(=O)COc2ccccc2[N+](=O)[O-])c(C)n1C1CC1 | inconclusive: 16.4 µM [activator, partial curve] | –
41 | COC(=O)c1nn(-c2ccccc2)c(Sc2ccc(Cl)cc2)c1/C=N/O | inconclusive: 25.9 µM [inhibitor, single point] | –
42 | COc1ccc(NC(=O)Cn2nnc3sc4c(c3c2=O)CC(C)(C)OC4)cc1 | inconclusive: 18.3 µM [inhibitor, single point] | –
43 | O=C(CN(Cc1ccccc1)C(=O)c1ccc2c(c1)OCCO2)NCc1ccc2c(c1)OCO2 | inconclusive: 29.1 µM [inhibitor, single point] | –
44 | Cc1ccc(-c2nc(Nc3ccccc3)n[nH]2)cc1 | inconclusive: 2.31 µM [activator, partial curve] | –
45 | CC1CCCCC1NC(=O)COc1ccccc1C#N (stereo not drawn) | inconclusive: 20.6 µM [activator, single point] | –
46 | CS(=O)(=O)N1CCN(CC(=O)NC2CCCCC2)CC1 | – | inactive: -8.1%

Molecules above that contain a nitro group on carbon (2):
Row | Compound | Potency | activity change, negative = inhibition
28 | Cc1ccc([N+](=O)[O-])cc1S(=O)(=O)Nc1cccc(-c2ccc(N3CCOCC3)nn2)c1 | inconclusive: 5.8 µM [activator, single point] | –
40 | Cc1cc(C(=O)COc2ccccc2[N+](=O)[O-])c(C)n1C1CC1 | inconclusive: 16.4 µM [activator, partial curve] | –

Continuation:

Row | Compound | Potency | activity change, negative = inhibition
47 | N/C(Cc1nc(-c2ccc(Cl)cc2)cs1)=N/O | inconclusive: 8.2 µM [inhibitor, partial curve] | –
48 | CCOC(=O)C1CCCN(c2cc(NCCCO)c([N+](=O)[O-])c3nonc23)C1 (stereo not drawn) | – | inactive: 2.03%
49 | CCOC(=O)C1(Cc2ccccc2C(F)(F)F)CCN(Cc2ccon2)CC1 | inconclusive: 29.1 µM [inhibitor, single point] | –
50 | CCOC(=O)c1cnc2c(-c3ccc(Cl)cc3)c(C)nn2c1N | – | inactive: 27.6%
51 | Cc1[nH]c(C)c(S(=O)(=O)N2CCCCC2)c1C(=O)N1CCCC1 | inconclusive: 11.6 µM [activator, partial curve, poor fit] | –
52 | Cc1ccccc1-c1nc(CS(=O)CC(=O)NCCc2ccc(Cl)cc2)c(C)o1 (stereo not drawn) | – | inactive: 19.6%
53 | COc1ccc2c(c1OC)C(=O)OC2Nc1nc(-c2cc3cc([N+](=O)[O-])ccc3oc2=O)cs1 (stereo not drawn) | inconclusive: 18.4 µM [activator, partial curve, poor fit] | –
54 | O=C(Nc1cc(S(=O)(=O)N2CCCCCC2)ccc1OCC(F)(F)F)c1ccc(=O)[nH]c1 | – | inactive: 22.8%
55 | CC(C)N(Cc1ccccc1)C(=O)COC(=O)c1ccc2ncsc2c1 | inconclusive: 6.51 µM [activator, full curve, poor fit] | –
56 | Cc1ccc(NC(=O)COC(=O)c2cccc3c2C(=O)c2ccccc2C3=O)c(C)c1 | active: 10.3 µM | –
57 | O=c1c2ccccc2nc(COc2ccccc2)n1/N=C/c1c[nH]c2ccccc12 | active: 2.31 µM | –
58 | COc1ccc(-c2nnc3ccc(SCC(=O)N4CCCC4)nn23)cc1 | – | inactive: -3.45%
59 | CCOC(=O)C1CNc2cc(S(=O)(=O)CC)ccc2O1 (stereo not drawn) | inconclusive: 0.0013 µM [inhibitor, full curve, poor fit] | –
60 | COC(=O)c1ccn(CC(=O)NC2CCCCC2)n1 | inconclusive: 20.6 µM [activator, partial curve] | –
61 | NC(=O)CSc1nc(C2CC2)nc2sc3c(c12)CCCC3 | inconclusive: 4.11 µM [activator, full curve] | –
62 | CCc1ccc(Nc2nnc(SC3CCOC3=O)s2)cc1 (stereo not drawn) | inconclusive: 16.4 µM [activator, single point] | –
63 | CS(=O)(=O)N(Cc1ccccc1)c1ccc(C(=O)NCCSCc2ccco2)cc1 | inconclusive: 25.9 µM [inhibitor, partial curve, poor fit] | –
64 | CC1=[N+](C)N(c2ccccc2)C(=O)C1N=Cc1ccc(Cl)cc1 (stereo not drawn) | – | inactive: 15.9%
65 | COc1ccc(OC)c(/C=C/C(=O)Nc2ccc(OC)nc2)c1 | – | inactive: -5.16%
66 | Cc1cccc(Cc2c(C)nc3c(C(=O)NCc4ccco4)cnn3c2C)c1 | inconclusive: 20.6 µM [inhibitor, single point] | –
67 | Cc1ccc(NC(C)c2cc(Cl)ccc2O)cc1 (stereo not drawn) | – | inactive: -17.4%
68 | CN1CCN(CCC(=O)Nc2ccc(OCc3ccccc3)cc2)CC1 | inconclusive: 20.6 µM [activator, partial curve] | –
